# Data: publication PMC4390146
# Sequences of proteins named here, by UniProt entry; tags and fusion partners are left off. A line that says so, or that is headed by a name, gives the form on record, which may keep a tag or linker. Residues count along the entry.
# UniProt Q15691: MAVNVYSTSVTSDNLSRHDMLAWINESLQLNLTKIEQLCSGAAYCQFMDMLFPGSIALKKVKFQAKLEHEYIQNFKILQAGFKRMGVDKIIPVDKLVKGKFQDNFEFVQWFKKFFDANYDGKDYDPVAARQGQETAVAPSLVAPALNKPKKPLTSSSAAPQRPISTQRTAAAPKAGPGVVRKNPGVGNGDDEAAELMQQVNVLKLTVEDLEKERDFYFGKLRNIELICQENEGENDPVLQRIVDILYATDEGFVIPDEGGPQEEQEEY
# FTβ amino acids 1–373, HA-tagged (P49356, residues 1-373): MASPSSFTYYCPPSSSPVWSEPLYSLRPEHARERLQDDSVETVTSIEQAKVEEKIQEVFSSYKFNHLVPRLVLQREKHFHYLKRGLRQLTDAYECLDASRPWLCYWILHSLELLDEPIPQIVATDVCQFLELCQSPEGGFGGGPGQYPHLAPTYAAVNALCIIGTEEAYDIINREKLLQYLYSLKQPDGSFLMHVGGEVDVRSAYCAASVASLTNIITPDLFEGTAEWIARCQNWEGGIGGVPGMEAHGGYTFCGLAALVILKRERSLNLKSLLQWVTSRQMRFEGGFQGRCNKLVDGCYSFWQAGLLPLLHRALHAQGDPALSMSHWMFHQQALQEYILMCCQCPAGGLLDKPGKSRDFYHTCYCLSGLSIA
# FTβ amino acids 1–138, HA-tagged (P49356, residues 1-138): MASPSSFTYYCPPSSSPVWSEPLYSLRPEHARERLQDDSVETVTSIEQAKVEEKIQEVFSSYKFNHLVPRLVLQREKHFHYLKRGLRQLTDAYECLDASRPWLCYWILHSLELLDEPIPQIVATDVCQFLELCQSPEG
# FTβ amino acids 76–437, HA-tagged (P49356, residues 76-437): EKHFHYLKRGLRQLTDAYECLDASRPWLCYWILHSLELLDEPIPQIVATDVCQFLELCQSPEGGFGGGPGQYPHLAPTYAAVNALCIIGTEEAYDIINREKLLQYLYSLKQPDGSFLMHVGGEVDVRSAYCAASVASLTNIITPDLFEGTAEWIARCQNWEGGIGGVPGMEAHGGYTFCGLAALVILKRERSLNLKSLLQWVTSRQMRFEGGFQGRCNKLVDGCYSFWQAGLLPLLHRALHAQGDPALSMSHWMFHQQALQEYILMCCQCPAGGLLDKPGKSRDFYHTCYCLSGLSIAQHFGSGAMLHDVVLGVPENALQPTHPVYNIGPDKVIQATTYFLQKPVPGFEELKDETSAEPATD
# FTβ amino acids 76–373, HA-tagged (P49356, residues 76-373): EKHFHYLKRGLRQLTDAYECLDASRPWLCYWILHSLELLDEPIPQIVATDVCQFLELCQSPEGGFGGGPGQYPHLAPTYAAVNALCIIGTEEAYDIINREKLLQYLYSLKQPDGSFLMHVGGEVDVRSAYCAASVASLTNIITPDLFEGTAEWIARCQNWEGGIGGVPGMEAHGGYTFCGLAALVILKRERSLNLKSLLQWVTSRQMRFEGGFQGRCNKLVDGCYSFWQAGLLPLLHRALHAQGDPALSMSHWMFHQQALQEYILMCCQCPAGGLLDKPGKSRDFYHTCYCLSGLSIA
# No constants are given. Whether binding was seen depends on the method and setting. In cells and extracts the contact can be indirect. Some results given as binding are weak or reduced against the parent protein; the word gives no strength.
# Target: microtubule-associated protein RP/EB family member 1 (MAPRE1), full length, GST-tagged (UniProt Q15691)
# Assay: pull-down; HUVECs co-transfected with GST-MAPRE1 and HA-FTβ (or their truncated forms); cell lysate incubated with glutathione Sepharose 4B beads at 4°C for 2 hours, washed, Western blot; in one panel cells treated with DMSO or 10 μM lonafarnib for 24 hours before the pull-down (association decreased)
row,binding,Substance
1,no binding,"FTβ amino acids 1–138, HA-tagged (from UniProt P49356 1-138) (domain or fragment)"
2,binds,"FTβ amino acids 1–373, HA-tagged (from UniProt P49356 1-373) (domain or fragment)"
3,binds,"FTβ amino acids 76–373, HA-tagged (from UniProt P49356 76-373) (domain or fragment)"
4,binds,"FTβ amino acids 76–437, HA-tagged (from UniProt P49356 76-437) (domain or fragment)"
